Residue numbers refer to the chain shown, from its start. This is one part of the list. For some of these results: At the low end of the ranking, values are background and their order means little.
Columns and labels:
Conditions in all cases: yeast three-hybrid, YBZ-1, SC-Leu-His + 0.5 mM 3-AT, 4 days
[1] = target: T1, PUM1 PUF domain R7-GSR S1079G + N1080S + E1083R (Homo sapiens) (UniProt Q14671)
T1 sequence: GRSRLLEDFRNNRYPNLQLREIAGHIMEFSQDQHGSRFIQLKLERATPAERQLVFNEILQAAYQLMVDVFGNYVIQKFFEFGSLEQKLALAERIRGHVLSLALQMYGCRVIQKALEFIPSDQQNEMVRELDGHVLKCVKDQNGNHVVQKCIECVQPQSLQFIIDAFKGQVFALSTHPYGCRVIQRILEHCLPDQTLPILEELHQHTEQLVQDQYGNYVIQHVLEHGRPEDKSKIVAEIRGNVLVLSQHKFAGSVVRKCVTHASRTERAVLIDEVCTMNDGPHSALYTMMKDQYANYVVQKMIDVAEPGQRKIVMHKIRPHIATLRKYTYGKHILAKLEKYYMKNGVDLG

[2] = target: T2, PUM1 PUF domain R7-GSV S1079G + N1080S + E1083V (UniProt Q14671)
T2 sequence: T1 sequence with R256V

[3] = target: T3, PUM1 PUF domain R7-GTR S1079G + N1080T + E1083R (Homo sapiens) (UniProt Q14671)
T3 sequence: T1 sequence with S253T

[4] = target: T4, PUM1 PUF domain R7-GTS S1079G + N1080T + E1083S (UniProt Q14671)
T4 sequence: T1 sequence with S253T, R256S

[5] = target: T5, PUM1 PUF domain R7-GVD S1079G + N1080V + E1083D (UniProt Q14671)
T5 sequence: T1 sequence with S253V, R256D

[6] = target: T6, PUM1 PUF domain R7-GVK S1079G + N1080V + E1083K (Homo sapiens) (UniProt Q14671)
T6 sequence: T1 sequence with S253V, R256K

[7] = target: T7, PUM1 PUF domain R7-GVN S1079G + N1080V + E1083N (UniProt Q14671)
T7 sequence: T1 sequence with S253V, R256N

[8] = target: T8, PUM1 PUF domain R7-GVV S1079G + N1080V + E1083V (Homo sapiens) (UniProt Q14671)
T8 sequence: T1 sequence with S253V, R256V

[9] = target: T9, PUM1 PUF domain R7-IMG S1079I + N1080M + E1083G (UniProt Q14671)
T9 sequence: T1 sequence with G252I, S253M, R256G

[10] = target: T10, PUM1 PUF domain R7-ISG S1079I + N1080S + E1083G (UniProt Q14671)
T10 sequence: T1 sequence with G252I, R256G

[11] = target: T11, PUM1 PUF domain R7-ISR S1079I + N1080S + E1083R (Homo sapiens) (UniProt Q14671)
T11 sequence: T1 sequence with G252I

[12] = target: T12, PUM1 PUF domain R7-ISS S1079I + N1080S + E1083S (UniProt Q14671)
T12 sequence: T1 sequence with G252I, R256S

[13] = target: T13, PUM1 PUF domain R7-KGG S1079K + N1080G + E1083G (Homo sapiens) (UniProt Q14671)
T13 sequence: T1 sequence with G252K, S253G, R256G

[14] = target: T14, PUM1 PUF domain R7-KGS S1079K + N1080G + E1083S (Homo sapiens) (UniProt Q14671)
T14 sequence: T1 sequence with G252K, S253G, R256S

[15] = target: T15, PUM1 PUF domain R7-KGV S1079K + N1080G + E1083V (Homo sapiens) (UniProt Q14671)
T15 sequence: T1 sequence with G252K, S253G, R256V

[16] = target: T16, PUM1 PUF domain R7-LER S1079L + N1080E + E1083R (UniProt Q14671)
T16 sequence: T1 sequence with G252L, S253E

[17] = target: T17, PUM1 PUF domain R7-LFD S1079L + N1080F + E1083D (UniProt Q14671)
T17 sequence: T1 sequence with G252L, S253F, R256D

[18] = target: T18, PUM1 PUF domain R7-LMF S1079L + N1080M + E1083F (UniProt Q14671)
T18 sequence: T1 sequence with G252L, S253M, R256F

[19] = target: T19, PUM1 PUF domain R7-LNA S1079L + E1083A (Homo sapiens) (UniProt Q14671)
T19 sequence: T1 sequence with G252L, S253N, R256A

[20] = target: T20, PUM1 PUF domain R7-LNG S1079L + E1083G (Homo sapiens) (UniProt Q14671)
T20 sequence: T1 sequence with G252L, S253N, R256G

[21] = target: T21, PUM1 PUF domain R7-LPT S1079L + N1080P + E1083T (UniProt Q14671)
T21 sequence: T1 sequence with G252L, S253P, R256T

[22] = target: T22, PUM1 PUF domain R7-LSC S1079L + N1080S + E1083C (Homo sapiens) (UniProt Q14671)
T22 sequence: T1 sequence with G252L, R256C

[23] = target: T23, PUM1 PUF domain R7-LSS S1079L + N1080S + E1083S (UniProt Q14671)
T23 sequence: T1 sequence with G252L, R256S

[24] = target: T24, PUM1 PUF domain R7-LST S1079L + N1080S + E1083T (Homo sapiens) (UniProt Q14671)
T24 sequence: T1 sequence with G252L, R256T

[25] = target: T25, PUM1 PUF domain R7-LSV S1079L + N1080S + E1083V (Homo sapiens) (UniProt Q14671)
T25 sequence: T1 sequence with G252L, R256V

## GGCUAGAACUAGUGGAUCCCCCGGCGCCCGGCGGCUCGAGCCCGGGUAAGUCUAAAUAGUCUGCAUGCCGCCGGGCGCCAUGCCUGCAGGUCGACUCUAGAAAACAUG
[1]
  binding signal (log2 enrichment (interaction score)): -2.24
[2]
  binding signal (log2 enrichment (interaction score)): -8.08
[3]
  binding signal (log2 enrichment (interaction score)): -5.13
[4]
  binding signal (log2 enrichment (interaction score)): < -9.6
[5]
  binding signal (log2 enrichment (interaction score)): < -9.46
[6]
  binding signal (log2 enrichment (interaction score)): -6.04
[7]
  binding signal (log2 enrichment (interaction score)): < -9
[8]
  binding signal (log2 enrichment (interaction score)): -4.12
[9]
  binding signal (log2 enrichment (interaction score)): < -7.47
[10]
  binding signal (log2 enrichment (interaction score)): < -10.2
[11]
  binding signal (log2 enrichment (interaction score)): -2.31
[12]
  binding signal (log2 enrichment (interaction score)): < -8.18
[13]
  binding signal (log2 enrichment (interaction score)): -1.66
[14]
  binding signal (log2 enrichment (interaction score)): -0.38
[15]
  binding signal (log2 enrichment (interaction score)): -0.97
[16]
  binding signal (log2 enrichment (interaction score)): < -10.2
[17]
  binding signal (log2 enrichment (interaction score)): < -8.65
[18]
  binding signal (log2 enrichment (interaction score)): < -7.91
[19]
  binding signal (log2 enrichment (interaction score)): -3.8
[20]
  binding signal (log2 enrichment (interaction score)): -2.32
[21]
  binding signal (log2 enrichment (interaction score)): < -9.1
[22]
  binding signal (log2 enrichment (interaction score)): -3.56
[23]
  binding signal (log2 enrichment (interaction score)): < -11.3
[24]
  binding signal (log2 enrichment (interaction score)): -6.04
[25]
  binding signal (log2 enrichment (interaction score)): -2.85

— article PMC8384837
